Experiment [1] concerns the target T1, mCherry-GLUT1-Nluc dual fusion protein (mouse) (UniProt P17809).
T1 sequence: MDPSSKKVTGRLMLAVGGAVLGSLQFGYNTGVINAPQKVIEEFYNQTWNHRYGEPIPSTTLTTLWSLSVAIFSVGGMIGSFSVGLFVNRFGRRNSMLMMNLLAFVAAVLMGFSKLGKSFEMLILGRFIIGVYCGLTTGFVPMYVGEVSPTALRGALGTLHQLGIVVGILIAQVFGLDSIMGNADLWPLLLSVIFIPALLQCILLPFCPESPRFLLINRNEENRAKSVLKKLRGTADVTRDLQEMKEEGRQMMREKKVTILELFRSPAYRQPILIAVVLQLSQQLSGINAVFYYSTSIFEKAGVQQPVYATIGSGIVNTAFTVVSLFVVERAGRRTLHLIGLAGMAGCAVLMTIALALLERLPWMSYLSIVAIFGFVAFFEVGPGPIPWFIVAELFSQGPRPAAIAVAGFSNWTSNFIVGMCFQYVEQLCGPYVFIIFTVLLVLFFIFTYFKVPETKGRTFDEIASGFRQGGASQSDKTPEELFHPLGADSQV
Kind of experiment: FRET or BRET; unlabeled competition assay in live 293FT cells: increasing amounts of unlabeled GLUT1 co-transfected with the donor and acceptor fusion proteins or with the dual fusion protein. For orientation: Bioluminescence resonance energy transfer reports proximity on the nanometre scale.

In experiment [2] the target is T2, Nluc-GLUT1 (mouse, UniProt P17809 1-492).
T2 construct: facilitated glucose transporter GLUT1 (SLC2A1), mouse Glut1 open reading frame; BRET donor; also called GLUT1 fused to Nluc at the N-terminus; not shown: Nanoluciferase (Nluc), N-terminal, kept
T2 sequence (looked up): T1 sequence
The description is as above.

Experiment [3] addresses T2, Nluc-GLUT1. Kind of experiment: FRET or BRET; live 293FT-HEK cells transiently co-transfected (in cis) with increasing amounts of Nluc-GLUT1 and mCherry-GLUT1; absolute BRET ratio, compared with a 1:1 mix of separately transfected cells (trans).
The target of experiment [4] is T2, Nluc-GLUT1. Kind of experiment: condition: only cell membrane complexes disrupted with detergents; FRET or BRET; emission spectrum of Nluc-Glut1 with doxycycline-inducible mCherry-Glut1 (monochromator), cell membrane complexes disrupted with detergents.
In experiment [5] the target is T2, Nluc-GLUT1. Briefly: FRET or BRET; saturation BRET in live 293FT cells: fixed amount of Nluc donor fusion, increasing amounts of mCherry acceptor fusion, transient transfection; corrected BRET against acceptor:donor plasmid ratio, fit to standard binding curves.
The next experiment deals with T3, GLUT1-Nluc (mouse) (UniProt P17809).
T3 sequence: T1 sequence
The description is as above.

Results are given in words; binding and its absence hold for the method and conditions named. Binding seen in cells or lysates may run through a third protein. Some binding calls cover weakened binding; strength is not graded here. Tags and fused reporters may be left off the sequences shown.

B1: mCherry-GLUT1-Nluc dual fusion protein (protein, UniProt P17809 1-492)
chain: T1 sequence
B1: the binding result in experiment [1] was “binds”.

B2: unlabeled GLUT1 (protein, UniProt P17809 1-492)
chain: T1 sequence
In the case of B2, the binding result (in the experiment with Nluc-GLUT1 [2]; in experiment [1]) was “binds” throughout.

B3: mCherry-GLUT1 (natural protein, mouse, UniProt P17809 1-492, looked up)
chain: T1 sequence
notes: facilitated glucose transporter GLUT1 (SLC2A1), mouse Glut1 open reading frame; BRET acceptor; also called GLUT1 fused to mCherry at the N-terminus; not shown: mCherry, N-terminal, kept
In the case of B3, the binding result is given as “binds” in the experiment with Nluc-GLUT1 [2]; “binds” in the experiment with Nluc-GLUT1 [3]; “no binding” with Nluc-GLUT1 [4]; “binds” with Nluc-GLUT1 [5]; “binds” with GLUT1-Nluc (mouse).

B4: GLUT1 with the mCherry acceptor fused to the C-terminus (protein, UniProt P17809 1-492)
chain: T1 sequence
With B4, the binding result with Nluc-GLUT1 [5] is “binds weakly”.

The values are drawn from article PMC4928127, “Determination of GLUT1 Oligomerization Parameters using Bioluminescent Förster Resonance Energy Transfer” (Scientific Reports, 2016).
